Some of the results follow.
What was measured:
Test in all cases: glycan array binding signal (z-score within array); higher = stronger binding
Conditions in all cases: glycan notation: IUPAC condensed, linker removed
[1] = target: Gal(b1-4)GlcNAc(b1-6)GalNAc
Summary of the method: (§1)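 From the Consortium for Functional Glycomics database, 3228 arrays were curated, keeping only those whose protein sequence was available. Binding is given as a within-array Z-score averaged across arrays sharing a protein sequence and across linkers. Negative Z-scores can be read as non-binding.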

[2] = target: Gal(b1-4)GlcNAc(b1-6)[Gal(b1-3)]GalNAc
Summary of the method: as §1

[3] = target: Gal(b1-4)GlcNAc(b1-6)[Gal(b1-4)GlcNAc(b1-3)]GalNAc
Summary of the method: as §1

Gal(b1-4)GlcNAc6P = target: Gal(b1-4)GlcNAc6P
Summary of the method: as §1

Gal(b1-6)Gal = target: Gal(b1-6)Gal
Summary of the method: as §1

Gal3S(b1-3)GalNAc = target: Gal3S(b1-3)GalNAc
Summary of the method: as §1

Gal3S(b1-3)GlcNAc = target: Gal3S(b1-3)GlcNAc
Summary of the method: as §1

[4] = target: Gal3S(b1-3)[Fuc(a1-4)]GlcNAc
Summary of the method: as §1

Gal3S(b1-4)Glc = target: Gal3S(b1-4)Glc
Summary of the method: as §1

Gal3S(b1-4)Glc6S = target: Gal3S(b1-4)Glc6S
Summary of the method: as §1

Gal3S(b1-4)GlcNAc = target: Gal3S(b1-4)GlcNAc
Summary of the method: as §1

[5] = target: Gal3S(b1-4)[Fuc(a1-3)]Glc6S
Summary of the method: as §1

[6] = target: Gal3S(b1-4)[Fuc(a1-3)]GlcNAc
Summary of the method: as §1

[7] = target: Gal3S(b1-4)[Fuc(a1-3)]GlcNAc6S
Summary of the method: as §1

Gal3S4S(b1-4)GlcNAc = target: Gal3S4S(b1-4)GlcNAc
Summary of the method: as §1

Gal3S6S(b1-4)GlcNAc = target: Gal3S6S(b1-4)GlcNAc
Summary of the method: as §1

Gal3S6S(b1-4)GlcNAc6S = target: Gal3S6S(b1-4)GlcNAc6S
Summary of the method: as §1

Gal4S(b1-4)GlcNAc = target: Gal4S(b1-4)GlcNAc
Summary of the method: as §1

Gal4S6S(b1-4)GlcNAc = target: Gal4S6S(b1-4)GlcNAc
Summary of the method: as §1

Gal6P(b1-4)GlcNAc = target: Gal6P(b1-4)GlcNAc
Summary of the method: as §1

Gal6S(b1-3)GlcNAc = target: Gal6S(b1-3)GlcNAc
Summary of the method: as §1

Gal6S(b1-3)GlcNAc6S = target: Gal6S(b1-3)GlcNAc6S
Summary of the method: as §1

Gal6S(b1-4)Glc = target: Gal6S(b1-4)Glc
Summary of the method: as §1

Gal6S(b1-4)Glc6S = target: Gal6S(b1-4)Glc6S
Summary of the method: as §1

Gal6S(b1-4)GlcNAc = target: Gal6S(b1-4)GlcNAc
Summary of the method: as §1

Gal6S(b1-4)GlcNAc6S = target: Gal6S(b1-4)GlcNAc6S
Summary of the method: as §1

GalNAc(a1-3)Gal = target: GalNAc(a1-3)Gal
Summary of the method: as §1

GalNAc(a1-3)GalNAc = target: GalNAc(a1-3)GalNAc
Summary of the method: as §1

[8] = target: GalNAc(a1-3)GalNAc(b1-3)Gal(a1-4)Gal(b1-4)Glc
Summary of the method: as §1

[9] = target: GalNAc(a1-3)GalNAc(b1-3)Gal(a1-4)Gal(b1-4)GlcNAc
Summary of the method: as §1

GalNAc(b1-3)Gal = target: GalNAc(b1-3)Gal
Summary of the method: as §1

[10] = target: GalNAc(b1-3)Gal(a1-4)Gal(b1-4)GlcNAc
Summary of the method: as §1

[11] = target: GalNAc(b1-3)Gal(a1-4)Gal(b1-4)GlcNAc(b1-3)Gal(b1-4)Glc
Summary of the method: as §1

[12] = target: GalNAc(b1-3)Gal(a1-6)Gal(b1-4)Glc
Summary of the method: as §1

GalNAc(b1-3)GalNAc = target: GalNAc(b1-3)GalNAc
Summary of the method: as §1

GalNAc(b1-3)GlcNAc = target: GalNAc(b1-3)GlcNAc
Summary of the method: as §1

GalNAc(b1-4)Gal(b1-4)Glc = target: GalNAc(b1-4)Gal(b1-4)Glc
Summary of the method: as §1

GalNAc(b1-4)GlcNAc = target: GalNAc(b1-4)GlcNAc
Summary of the method: as §1

B1: B936 (Bifidobacterium sp) (protein)
chain: MKNWKKAIALVASAAALVSVAACGPSNAGGSSDSGKKTVGFVAVGPEGGFRTANEKDIQKAFEDAGFDLTYSPTQNNDQQKQIQAFNKFVNDEVDAIILSSTEDSGWDDSLKKAAEAEIPVFTVDRNVDVKDAEAKKAIVAHIGPSNVWCGEQAAEFVNKNFPDGANGFILEGPAGLSVVKDRGTGWGNKVASNVKVLESQSANWSTDEAKTVTAGLLDKYKSDNPQFIFAQNDEMGLGAAQAVDAAGLKGKVKIITIDGTKNALQALVDGDLSYVIEYNPIFGKETAQAVKDYLDGKTVEKDIEIESKTFDAASAKEALDNNTRAY
- glycan array binding signal (z-score) [1]: 0.082
- glycan array binding signal (z-score) [2]: 0.173
- glycan array binding signal (z-score) [3]: 0.533
- glycan array binding signal (z-score) (Gal(b1-4)GlcNAc6P): 0.287
- glycan array binding signal (z-score) (Gal(b1-6)Gal): 0.112
- glycan array binding signal (z-score) (Gal3S(b1-3)GalNAc): -0.048
- glycan array binding signal (z-score) (Gal3S(b1-3)GlcNAc): 0.121
- glycan array binding signal (z-score) [4]: -0.11
- glycan array binding signal (z-score) (Gal3S(b1-4)Glc): 0.035
- glycan array binding signal (z-score) (Gal3S(b1-4)Glc6S): 0.373
- glycan array binding signal (z-score) (Gal3S(b1-4)GlcNAc): 0.227
- glycan array binding signal (z-score) [5]: 0.724
- glycan array binding signal (z-score) [6]: -0.07
- glycan array binding signal (z-score) [7]: -0.058
- glycan array binding signal (z-score) (Gal3S4S(b1-4)GlcNAc): -0.572
- glycan array binding signal (z-score) (Gal3S6S(b1-4)GlcNAc): 0.29
- glycan array binding signal (z-score) (Gal3S6S(b1-4)GlcNAc6S): 0.156
- glycan array binding signal (z-score) (Gal4S(b1-4)GlcNAc): -0.343
- glycan array binding signal (z-score) (Gal4S6S(b1-4)GlcNAc): -0.45
- glycan array binding signal (z-score) (Gal6P(b1-4)GlcNAc): -0.541
- glycan array binding signal (z-score) (Gal6S(b1-3)GlcNAc): -0.26
- glycan array binding signal (z-score) (Gal6S(b1-3)GlcNAc6S): -0.294
- glycan array binding signal (z-score) (Gal6S(b1-4)Glc): -0.536
- glycan array binding signal (z-score) (Gal6S(b1-4)Glc6S): -1.06
- glycan array binding signal (z-score) (Gal6S(b1-4)GlcNAc): -0.704
- glycan array binding signal (z-score) (Gal6S(b1-4)GlcNAc6S): 0.127
- glycan array binding signal (z-score) (GalNAc(a1-3)Gal): -0.628
- glycan array binding signal (z-score) (GalNAc(a1-3)GalNAc): -0.036
- glycan array binding signal (z-score) [8]: -0.58
- glycan array binding signal (z-score) [9]: -0.476
- glycan array binding signal (z-score) (GalNAc(b1-3)Gal): -0.999
- glycan array binding signal (z-score) [10]: 0.581
- glycan array binding signal (z-score) [11]: -0.076
- glycan array binding signal (z-score) [12]: -0.322
- glycan array binding signal (z-score) (GalNAc(b1-3)GalNAc): 0.226
- glycan array binding signal (z-score) (GalNAc(b1-3)GlcNAc): -0.942
- glycan array binding signal (z-score) (GalNAc(b1-4)Gal(b1-4)Glc): 0.638
- glycan array binding signal (z-score) (GalNAc(b1-4)GlcNAc): -0.353

Source: the supplement of paper PMC8728848
